From the supplement of paper PMC12067093, “Discovery and optimisation of a covalent ligand for TRIM25 and its application to targeted protein ubiquitination” (Chemical Science, 2025) come the findings set out here.

Amino acid sequences for entries named in this document (tags omitted). A change or cut given only in a name is not applied to a line headed by its entry.
UniProt P23526: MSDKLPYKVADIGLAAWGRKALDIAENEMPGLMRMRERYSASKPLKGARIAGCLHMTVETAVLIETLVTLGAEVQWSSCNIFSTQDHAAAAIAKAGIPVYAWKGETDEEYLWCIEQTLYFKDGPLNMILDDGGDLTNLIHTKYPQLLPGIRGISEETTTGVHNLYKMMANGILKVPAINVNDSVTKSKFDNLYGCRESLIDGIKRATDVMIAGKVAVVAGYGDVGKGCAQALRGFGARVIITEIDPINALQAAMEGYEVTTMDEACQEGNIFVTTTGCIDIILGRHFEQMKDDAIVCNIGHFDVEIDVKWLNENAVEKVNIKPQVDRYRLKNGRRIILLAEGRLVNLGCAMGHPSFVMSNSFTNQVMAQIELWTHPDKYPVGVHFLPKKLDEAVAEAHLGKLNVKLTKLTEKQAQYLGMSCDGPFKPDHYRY
UniProt Q12802: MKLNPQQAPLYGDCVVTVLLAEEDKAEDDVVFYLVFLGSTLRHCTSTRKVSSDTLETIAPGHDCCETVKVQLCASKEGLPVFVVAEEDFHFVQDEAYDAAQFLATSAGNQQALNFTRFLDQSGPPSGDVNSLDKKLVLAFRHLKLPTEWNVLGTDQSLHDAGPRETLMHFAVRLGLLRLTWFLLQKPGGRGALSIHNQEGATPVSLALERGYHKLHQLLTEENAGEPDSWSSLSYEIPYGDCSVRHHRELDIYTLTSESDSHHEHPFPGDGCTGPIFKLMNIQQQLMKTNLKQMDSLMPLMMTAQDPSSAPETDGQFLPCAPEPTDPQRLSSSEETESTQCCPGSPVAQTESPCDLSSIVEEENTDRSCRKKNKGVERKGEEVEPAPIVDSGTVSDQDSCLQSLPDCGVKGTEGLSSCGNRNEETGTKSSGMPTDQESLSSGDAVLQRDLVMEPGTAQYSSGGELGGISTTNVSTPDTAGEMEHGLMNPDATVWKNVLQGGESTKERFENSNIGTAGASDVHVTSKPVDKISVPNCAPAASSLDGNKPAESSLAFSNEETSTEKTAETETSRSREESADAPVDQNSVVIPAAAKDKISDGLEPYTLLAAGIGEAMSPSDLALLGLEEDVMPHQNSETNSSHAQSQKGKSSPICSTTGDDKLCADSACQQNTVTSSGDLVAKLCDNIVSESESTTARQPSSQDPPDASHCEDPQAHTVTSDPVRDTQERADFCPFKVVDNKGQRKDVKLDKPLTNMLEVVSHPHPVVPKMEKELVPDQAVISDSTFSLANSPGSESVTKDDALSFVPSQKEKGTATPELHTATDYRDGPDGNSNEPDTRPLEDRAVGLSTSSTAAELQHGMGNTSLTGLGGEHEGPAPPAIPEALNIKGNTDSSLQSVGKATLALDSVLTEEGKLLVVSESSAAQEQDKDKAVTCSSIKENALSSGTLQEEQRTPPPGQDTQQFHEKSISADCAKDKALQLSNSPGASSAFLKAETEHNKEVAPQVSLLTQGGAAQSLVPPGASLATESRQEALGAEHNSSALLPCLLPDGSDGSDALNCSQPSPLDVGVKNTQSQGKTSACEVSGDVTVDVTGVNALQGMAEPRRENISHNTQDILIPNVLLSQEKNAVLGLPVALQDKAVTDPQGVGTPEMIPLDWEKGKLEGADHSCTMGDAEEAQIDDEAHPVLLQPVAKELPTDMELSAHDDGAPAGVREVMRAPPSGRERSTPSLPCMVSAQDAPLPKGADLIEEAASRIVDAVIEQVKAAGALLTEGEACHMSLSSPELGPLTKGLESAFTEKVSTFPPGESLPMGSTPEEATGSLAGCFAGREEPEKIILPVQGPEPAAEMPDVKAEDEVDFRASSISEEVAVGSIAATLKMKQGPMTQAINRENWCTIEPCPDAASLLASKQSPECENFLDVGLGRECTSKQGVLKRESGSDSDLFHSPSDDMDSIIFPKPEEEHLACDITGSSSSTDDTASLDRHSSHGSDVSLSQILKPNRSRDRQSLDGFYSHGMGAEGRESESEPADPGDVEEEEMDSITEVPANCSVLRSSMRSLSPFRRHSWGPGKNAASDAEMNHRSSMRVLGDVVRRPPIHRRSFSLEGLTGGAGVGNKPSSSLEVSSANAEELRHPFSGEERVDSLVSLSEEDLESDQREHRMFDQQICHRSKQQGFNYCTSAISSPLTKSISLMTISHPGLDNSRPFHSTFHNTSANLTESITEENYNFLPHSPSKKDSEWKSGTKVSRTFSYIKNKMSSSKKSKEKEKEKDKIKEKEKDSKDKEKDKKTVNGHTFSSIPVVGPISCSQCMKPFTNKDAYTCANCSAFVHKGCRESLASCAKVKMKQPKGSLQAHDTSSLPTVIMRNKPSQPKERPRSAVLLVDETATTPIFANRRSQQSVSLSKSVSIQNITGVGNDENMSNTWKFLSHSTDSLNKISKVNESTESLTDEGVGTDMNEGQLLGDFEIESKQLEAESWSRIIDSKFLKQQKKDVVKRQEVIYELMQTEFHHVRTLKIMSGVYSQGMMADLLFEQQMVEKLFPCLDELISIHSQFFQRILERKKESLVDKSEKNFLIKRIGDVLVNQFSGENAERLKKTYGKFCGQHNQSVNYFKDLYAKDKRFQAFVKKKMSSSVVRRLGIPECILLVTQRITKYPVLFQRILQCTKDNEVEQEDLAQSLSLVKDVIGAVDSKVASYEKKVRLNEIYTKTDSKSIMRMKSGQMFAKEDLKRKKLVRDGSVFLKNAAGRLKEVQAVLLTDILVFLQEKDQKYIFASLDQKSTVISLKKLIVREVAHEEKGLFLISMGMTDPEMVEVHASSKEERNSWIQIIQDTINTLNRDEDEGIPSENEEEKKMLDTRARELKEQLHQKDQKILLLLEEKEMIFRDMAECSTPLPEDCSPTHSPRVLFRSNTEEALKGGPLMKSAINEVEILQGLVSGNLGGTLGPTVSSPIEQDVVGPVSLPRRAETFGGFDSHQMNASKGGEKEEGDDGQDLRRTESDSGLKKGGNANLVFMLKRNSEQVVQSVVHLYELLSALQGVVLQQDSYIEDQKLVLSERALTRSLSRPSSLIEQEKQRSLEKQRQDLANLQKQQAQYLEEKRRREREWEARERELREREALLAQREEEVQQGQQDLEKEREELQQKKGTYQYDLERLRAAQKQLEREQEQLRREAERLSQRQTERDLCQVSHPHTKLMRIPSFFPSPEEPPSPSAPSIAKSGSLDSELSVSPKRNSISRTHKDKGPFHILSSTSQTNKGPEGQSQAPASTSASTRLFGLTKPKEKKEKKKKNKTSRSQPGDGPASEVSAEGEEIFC
UniProt P35573: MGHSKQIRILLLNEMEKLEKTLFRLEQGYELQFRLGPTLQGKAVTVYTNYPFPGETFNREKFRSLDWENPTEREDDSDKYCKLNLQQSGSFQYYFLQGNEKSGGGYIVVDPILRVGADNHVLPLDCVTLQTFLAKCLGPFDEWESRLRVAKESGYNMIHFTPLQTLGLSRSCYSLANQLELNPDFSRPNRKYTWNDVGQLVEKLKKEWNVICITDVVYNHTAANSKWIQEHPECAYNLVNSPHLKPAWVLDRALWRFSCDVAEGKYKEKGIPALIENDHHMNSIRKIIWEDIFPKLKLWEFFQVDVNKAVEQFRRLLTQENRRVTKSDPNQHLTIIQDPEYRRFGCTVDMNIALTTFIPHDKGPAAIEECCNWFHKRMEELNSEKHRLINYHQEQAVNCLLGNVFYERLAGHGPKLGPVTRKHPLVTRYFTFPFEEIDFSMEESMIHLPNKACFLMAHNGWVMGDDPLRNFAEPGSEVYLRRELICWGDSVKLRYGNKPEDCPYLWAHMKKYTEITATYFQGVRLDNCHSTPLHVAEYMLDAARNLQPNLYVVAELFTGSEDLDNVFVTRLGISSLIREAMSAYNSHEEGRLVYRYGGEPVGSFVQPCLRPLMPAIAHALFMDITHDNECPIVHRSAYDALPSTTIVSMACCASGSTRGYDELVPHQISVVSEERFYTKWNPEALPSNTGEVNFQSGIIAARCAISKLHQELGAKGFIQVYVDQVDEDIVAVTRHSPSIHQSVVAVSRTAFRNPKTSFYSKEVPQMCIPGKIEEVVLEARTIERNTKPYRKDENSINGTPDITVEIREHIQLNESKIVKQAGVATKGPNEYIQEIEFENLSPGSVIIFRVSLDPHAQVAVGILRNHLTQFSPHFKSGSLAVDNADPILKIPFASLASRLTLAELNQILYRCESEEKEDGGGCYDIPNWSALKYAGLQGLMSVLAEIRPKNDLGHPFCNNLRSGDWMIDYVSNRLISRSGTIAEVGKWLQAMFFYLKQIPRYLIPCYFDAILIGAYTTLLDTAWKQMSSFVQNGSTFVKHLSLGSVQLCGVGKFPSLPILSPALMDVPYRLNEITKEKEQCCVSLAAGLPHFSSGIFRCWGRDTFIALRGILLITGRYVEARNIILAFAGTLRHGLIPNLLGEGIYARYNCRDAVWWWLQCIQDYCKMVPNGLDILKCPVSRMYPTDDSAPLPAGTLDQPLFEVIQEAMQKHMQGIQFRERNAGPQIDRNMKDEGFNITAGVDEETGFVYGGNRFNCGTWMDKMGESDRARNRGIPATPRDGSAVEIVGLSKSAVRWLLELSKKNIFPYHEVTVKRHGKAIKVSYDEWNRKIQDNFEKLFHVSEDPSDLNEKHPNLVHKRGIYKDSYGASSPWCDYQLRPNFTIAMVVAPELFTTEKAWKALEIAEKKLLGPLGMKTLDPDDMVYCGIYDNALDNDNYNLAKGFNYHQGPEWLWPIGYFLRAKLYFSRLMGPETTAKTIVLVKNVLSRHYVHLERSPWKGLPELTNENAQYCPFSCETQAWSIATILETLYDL
UniProt O43823: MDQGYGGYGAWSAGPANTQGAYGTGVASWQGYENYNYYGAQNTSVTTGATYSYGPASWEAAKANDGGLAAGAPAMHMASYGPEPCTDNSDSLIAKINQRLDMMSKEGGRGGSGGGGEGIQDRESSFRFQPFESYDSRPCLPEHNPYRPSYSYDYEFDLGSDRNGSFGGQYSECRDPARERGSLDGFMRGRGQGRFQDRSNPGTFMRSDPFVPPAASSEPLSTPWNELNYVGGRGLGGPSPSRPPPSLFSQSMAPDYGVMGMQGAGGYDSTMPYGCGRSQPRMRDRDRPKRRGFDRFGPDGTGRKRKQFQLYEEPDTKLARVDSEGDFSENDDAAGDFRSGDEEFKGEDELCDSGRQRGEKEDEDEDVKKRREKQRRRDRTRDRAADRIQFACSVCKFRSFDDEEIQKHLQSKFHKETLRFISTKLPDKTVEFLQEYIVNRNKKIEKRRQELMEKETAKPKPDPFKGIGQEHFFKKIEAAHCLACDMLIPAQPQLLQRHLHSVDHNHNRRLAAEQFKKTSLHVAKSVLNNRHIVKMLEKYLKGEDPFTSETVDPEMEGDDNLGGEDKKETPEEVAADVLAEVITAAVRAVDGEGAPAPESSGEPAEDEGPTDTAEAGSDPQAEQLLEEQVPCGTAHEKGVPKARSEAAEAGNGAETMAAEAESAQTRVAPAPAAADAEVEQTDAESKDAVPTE
UniProt Q9NRZ7: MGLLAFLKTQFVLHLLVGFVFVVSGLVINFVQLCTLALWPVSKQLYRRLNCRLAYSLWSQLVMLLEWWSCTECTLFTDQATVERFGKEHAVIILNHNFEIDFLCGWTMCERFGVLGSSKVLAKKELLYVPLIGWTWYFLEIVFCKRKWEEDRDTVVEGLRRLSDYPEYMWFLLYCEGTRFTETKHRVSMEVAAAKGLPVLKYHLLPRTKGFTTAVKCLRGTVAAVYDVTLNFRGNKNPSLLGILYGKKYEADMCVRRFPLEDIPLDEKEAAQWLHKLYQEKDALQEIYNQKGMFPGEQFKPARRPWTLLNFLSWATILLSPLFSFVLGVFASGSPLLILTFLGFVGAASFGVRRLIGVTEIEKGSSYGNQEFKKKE
UniProt O43865, whole entry, looked up: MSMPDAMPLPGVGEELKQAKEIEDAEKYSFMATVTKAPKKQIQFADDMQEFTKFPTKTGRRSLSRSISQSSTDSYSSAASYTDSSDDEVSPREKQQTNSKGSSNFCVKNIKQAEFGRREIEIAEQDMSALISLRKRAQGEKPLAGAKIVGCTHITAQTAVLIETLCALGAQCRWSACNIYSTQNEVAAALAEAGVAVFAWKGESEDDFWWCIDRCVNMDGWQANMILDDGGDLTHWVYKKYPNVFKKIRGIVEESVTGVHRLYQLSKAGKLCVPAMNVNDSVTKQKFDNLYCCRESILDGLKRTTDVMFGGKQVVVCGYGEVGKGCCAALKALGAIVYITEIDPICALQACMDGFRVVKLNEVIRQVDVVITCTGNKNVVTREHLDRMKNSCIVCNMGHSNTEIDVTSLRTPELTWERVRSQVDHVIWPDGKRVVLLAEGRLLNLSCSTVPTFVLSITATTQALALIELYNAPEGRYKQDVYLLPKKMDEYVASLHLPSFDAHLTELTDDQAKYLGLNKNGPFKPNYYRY
UniProt Q9UM13, whole entry, looked up: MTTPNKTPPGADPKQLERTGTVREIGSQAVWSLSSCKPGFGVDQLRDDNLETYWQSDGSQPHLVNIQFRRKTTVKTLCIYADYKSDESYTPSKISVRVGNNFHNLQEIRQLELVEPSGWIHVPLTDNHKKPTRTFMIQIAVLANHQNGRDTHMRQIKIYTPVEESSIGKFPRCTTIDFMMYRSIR

The list shows a part of the results.
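Also: competitive chemoproteomic profiling in live THP-1 cells with an iodoacetamide desthiobiotin (IA-DTB) probe, comparing probe-labelled peptide intensities in compound-treated cells against DMSO-treated controls.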

Compound in one experiment: CC1Cc2ccccc2N1C(=O)C1CCCN(C1)C(=O)CCl (mixture of isomers) [TRIM25 ligand 11 (diastereomer mixture)]
The experiment can be described thus: probe-labelled cysteine peptide fold change vs DMSO (competition) (log2 fold change); higher = less target engagement (more negative = stronger competition). Conditions: 10 µM; THP-1; incubation time: 4 h.
For “ALDOA_P04075_240_ALSDHHIYLEGTLLKPNMVTPGHACTQK (UniProt P04075)”, the “probe-labelled cysteine peptide fold change” value stood at 0.0583.

In the case of “AGPS_O00116_214_IPDIVLWPTCHDDVVK (UniProt O00116)”, the “probe-labelled cysteine peptide fold change” value is -0.0325.

In the case of “ALDOA_P04075_202_CQYVTEK (UniProt P04075)”, the “probe-labelled cysteine peptide fold change” value was 0.0126.

For “AMACR_Q9UHK6_284_AEWCQIFDGTDACVTPVLTFEEVVHHDHNK (UniProt Q9UHK6)”, the “probe-labelled cysteine peptide fold change” value came to 0.083.

On to “ALDOA_P04075_290_CPLLKPWALTFSYGR (UniProt P04075)”, for which the “probe-labelled cysteine peptide fold change” value was -0.469.

With “AKAP2_Q9Y2D5_10_MEIEVSVAECK (UniProt Q9Y2D5)”, the “probe-labelled cysteine peptide fold change” value is -0.0921.

Turning to “ALDH9A1_P49189_150_REPLGVCVGIGAWNYPFQIASWK (UniProt P49189)”, the “probe-labelled cysteine peptide fold change” value was -0.154.

In the case of “AGO2_Q9UKV8_272_VEITHCGQMK (UniProt Q9UKV8)”, the “probe-labelled cysteine peptide fold change” value was 0.0349.

As to “AHCY_P23526_113_GETDEEYLWCIEQTLYFK (UniProt P23526)”, the “probe-labelled cysteine peptide fold change” value was -0.0406.

As to “ANAPC1_Q9H1A4_988_QACEGNLPK (UniProt Q9H1A4)”, the “probe-labelled cysteine peptide fold change” value is -0.07.

“ALDH2_P05091_386_LLCGGGIAADR (UniProt P05091)”: the “probe-labelled cysteine peptide fold change” value was -0.0272.

In the case of “AKT2_P31751_124_CGSPSDSSTTEEMEVAVSK (UniProt P31751)”, the “probe-labelled cysteine peptide fold change” value amounted to 0.019.

Turning to “AKAP13_Q12802_2101_FCGQHNQSVNYFK (UniProt Q12802)”, the “probe-labelled cysteine peptide fold change” value was found to be 0.0734.

As to “ALDH9A1_P49189_267_SPLIIFSDCDMNNAVK (UniProt P49189)”, the “probe-labelled cysteine peptide fold change” value stood at 0.298.

In the case of “AGL_P35573_767_EVPQMCIPGKIEEVVLEAR (UniProt P35573)”, the “probe-labelled cysteine peptide fold change” value was -0.407.

With “ALDH18A1_P54886_674_SLRTEYGDLELCIEVVDNVQDAIDHIHK (UniProt P54886)”, the “probe-labelled cysteine peptide fold change” value was -0.215.

For the target “ALDOC_P09972_240_PNMVTPGHACPIK (UniProt P09972)”, the “probe-labelled cysteine peptide fold change” value came to 0.0718.

Consider “AHCYL2_Q96HN2_232_IVGCTHITAQTAVLMETLGALGAQCR (UniProt Q96HN2)”, for which the “probe-labelled cysteine peptide fold change” value came to 0.24.

In the case of “AGL_P35573_767_EVPQMCIPGK (UniProt P35573)”, the “probe-labelled cysteine peptide fold change” value came out at 0.049.

Turning to “ANK2_Q01484_60_GGIDINTCNQNGLNALHLAAK (UniProt Q01484)”, the “probe-labelled cysteine peptide fold change” value is -0.0102.

Turning to “ANAPC4_Q9UJX5_697_LDEQCSAIPTR (UniProt Q9UJX5)”, the “probe-labelled cysteine peptide fold change” value turned out to be 0.138.

As to “AIP_O00170_121+122_HCCGVAQMR (UniProt O00170)”, the “probe-labelled cysteine peptide fold change” value is -0.0594.

With “AKAP8_O43823_392+395_IQFACSVCK (UniProt O43823)”, the “probe-labelled cysteine peptide fold change” value is -0.0142.

On to “AGPAT3_Q9NRZ7_254_KYEADMCVR (UniProt Q9NRZ7)”, for which the “probe-labelled cysteine peptide fold change” value was determined as 0.0275.

“AHNAK_Q09666_2162_LEGDLTGPSVDVEVPDVELECPDAK (UniProt Q09666)”: the “probe-labelled cysteine peptide fold change” value was 0.138.

On to “ALDH2_P05091_179_HEPVGVCGQIIPWNFPLLMQAWK (UniProt P05091)”, for which the “probe-labelled cysteine peptide fold change” value is -0.0541.

Consider “AHCYL1_O43865_395_NSCIVCNMGHSNTEIDVTSLR (UniProt O43865)”, for which the “probe-labelled cysteine peptide fold change” value amounted to 0.0985.

Regarding “ANAPC10_Q9UM13_78_TLCIYADYK (UniProt Q9UM13)”, the “probe-labelled cysteine peptide fold change” value was -0.0443.

Regarding “AKR1B1_P15121_187_PAVNQIECHPYLTQEK (UniProt P15121)”, the “probe-labelled cysteine peptide fold change” value is 0.0786.

Take “AHCY_P23526_195_SKFDNLYGCR (UniProt P23526)”: the “probe-labelled cysteine peptide fold change” value was -0.0471.

As to “ANAPC5_Q9UJX4_312_YAALNLAALHCR (UniProt Q9UJX4)”, the “probe-labelled cysteine peptide fold change” value is -0.0472.

“ANAPC4_Q9UJX5_732_VSCVLSSNLR (UniProt Q9UJX5)”: the “probe-labelled cysteine peptide fold change” value turned out to be 0.0527.

Take “ALDH1L1_O75891_707_GENCIAAGR (UniProt O75891)”: the “probe-labelled cysteine peptide fold change” value is -0.053.

With “ALDH18A1_P54886_546_EEVEDLCR (UniProt P54886)”, the “probe-labelled cysteine peptide fold change” value was determined as 0.122.

“AMACR_Q9UHK6_293_AEWCQIFDGTDACVTPVLTFEEVVHHDHNK (UniProt Q9UHK6)”: the “probe-labelled cysteine peptide fold change” value stood at 0.181.

With “AHCYL1_O43865_392+395_NSCIVCNMGHSNTEIDVTSLR (UniProt O43865)”, the “probe-labelled cysteine peptide fold change” value is -0.122.

Regarding “ALS2_Q96Q42_916_LLCESSNR (UniProt Q96Q42)”, the “probe-labelled cysteine peptide fold change” value was -0.0868.

Still in this experiment, the particulars now being: 50 µM; THP-1; incubation time: 4 h.
As for “ALDOA_P04075_240_ALSDHHIYLEGTLLKPNMVTPGHACTQK (UniProt P04075)”, the “probe-labelled cysteine peptide fold change” value is -0.178.

With “AGPS_O00116_214_IPDIVLWPTCHDDVVK (UniProt O00116)”, the “probe-labelled cysteine peptide fold change” value was -0.0247.

Turning to “ALDOA_P04075_202_CQYVTEK (UniProt P04075)”, the “probe-labelled cysteine peptide fold change” value came out at 0.0847.

Take “AMACR_Q9UHK6_284_AEWCQIFDGTDACVTPVLTFEEVVHHDHNK (UniProt Q9UHK6)”: the “probe-labelled cysteine peptide fold change” value was -0.21.

“ALDOA_P04075_290_CPLLKPWALTFSYGR (UniProt P04075)”: the “probe-labelled cysteine peptide fold change” value is -0.435.

On to “AKAP2_Q9Y2D5_10_MEIEVSVAECK (UniProt Q9Y2D5)”, for which the “probe-labelled cysteine peptide fold change” value is -0.252.

With “ALDH9A1_P49189_150_REPLGVCVGIGAWNYPFQIASWK (UniProt P49189)”, the “probe-labelled cysteine peptide fold change” value is -0.0918.

Take “AGO2_Q9UKV8_272_VEITHCGQMK (UniProt Q9UKV8)”: the “probe-labelled cysteine peptide fold change” value amounted to 0.0184.

Consider “AHCY_P23526_113_GETDEEYLWCIEQTLYFK (UniProt P23526)”, for which the “probe-labelled cysteine peptide fold change” value is 0.147.

As to “ANAPC1_Q9H1A4_988_QACEGNLPK (UniProt Q9H1A4)”, the “probe-labelled cysteine peptide fold change” value was -0.129.

As to “ALDH2_P05091_386_LLCGGGIAADR (UniProt P05091)”, the “probe-labelled cysteine peptide fold change” value turned out to be 0.0954.

As for “AKT2_P31751_124_CGSPSDSSTTEEMEVAVSK (UniProt P31751)”, the “probe-labelled cysteine peptide fold change” value is -0.15.

Consider “AKAP13_Q12802_2101_FCGQHNQSVNYFK (UniProt Q12802)”, for which the “probe-labelled cysteine peptide fold change” value is -0.0454.

Turning to “ALDH9A1_P49189_267_SPLIIFSDCDMNNAVK (UniProt P49189)”, the “probe-labelled cysteine peptide fold change” value turned out to be 0.198.

Regarding “AGL_P35573_767_EVPQMCIPGKIEEVVLEAR (UniProt P35573)”, the “probe-labelled cysteine peptide fold change” value is -0.231.

For “ALDH18A1_P54886_674_SLRTEYGDLELCIEVVDNVQDAIDHIHK (UniProt P54886)”, the “probe-labelled cysteine peptide fold change” value is -0.127.

On to “ALDOC_P09972_240_PNMVTPGHACPIK (UniProt P09972)”, for which the “probe-labelled cysteine peptide fold change” value amounted to 0.0465.

For the target “AHCYL2_Q96HN2_232_IVGCTHITAQTAVLMETLGALGAQCR (UniProt Q96HN2)”, the “probe-labelled cysteine peptide fold change” value is -0.144.

With “AGL_P35573_767_EVPQMCIPGK (UniProt P35573)”, the “probe-labelled cysteine peptide fold change” value was -0.0571.

For “ANK2_Q01484_60_GGIDINTCNQNGLNALHLAAK (UniProt Q01484)”, the “probe-labelled cysteine peptide fold change” value is 0.0518.

With “ANAPC4_Q9UJX5_697_LDEQCSAIPTR (UniProt Q9UJX5)”, the “probe-labelled cysteine peptide fold change” value amounted to 0.135.

For “AIP_O00170_121+122_HCCGVAQMR (UniProt O00170)”, the “probe-labelled cysteine peptide fold change” value is -0.276.

Take “AKAP8_O43823_392+395_IQFACSVCK (UniProt O43823)”: the “probe-labelled cysteine peptide fold change” value came out at 0.0345.

For “AGPAT3_Q9NRZ7_254_KYEADMCVR (UniProt Q9NRZ7)”, the “probe-labelled cysteine peptide fold change” value was -0.189.

In the case of “AHNAK_Q09666_2162_LEGDLTGPSVDVEVPDVELECPDAK (UniProt Q09666)”, the “probe-labelled cysteine peptide fold change” value is -0.0439.

“ALDH2_P05091_179_HEPVGVCGQIIPWNFPLLMQAWK (UniProt P05091)”: the “probe-labelled cysteine peptide fold change” value came to 0.0323.

With “AHCYL1_O43865_395_NSCIVCNMGHSNTEIDVTSLR (UniProt O43865)”, the “probe-labelled cysteine peptide fold change” value is -0.0547.

In the case of “ANAPC10_Q9UM13_78_TLCIYADYK (UniProt Q9UM13)”, the “probe-labelled cysteine peptide fold change” value turned out to be 0.201.

“AKR1B1_P15121_187_PAVNQIECHPYLTQEK (UniProt P15121)”: the “probe-labelled cysteine peptide fold change” value was 0.163.

Turning to “AHCY_P23526_195_SKFDNLYGCR (UniProt P23526)”, the “probe-labelled cysteine peptide fold change” value was -0.0538.

With “ANAPC5_Q9UJX4_312_YAALNLAALHCR (UniProt Q9UJX4)”, the “probe-labelled cysteine peptide fold change” value came out at 0.14.

On to “ANAPC4_Q9UJX5_732_VSCVLSSNLR (UniProt Q9UJX5)”, for which the “probe-labelled cysteine peptide fold change” value was 0.171.

Consider “ALDH1L1_O75891_707_GENCIAAGR (UniProt O75891)”, for which the “probe-labelled cysteine peptide fold change” value was -0.175.

For the target “ALDH18A1_P54886_546_EEVEDLCR (UniProt P54886)”, the “probe-labelled cysteine peptide fold change” value turned out to be 0.0208.

“AMACR_Q9UHK6_293_AEWCQIFDGTDACVTPVLTFEEVVHHDHNK (UniProt Q9UHK6)”: the “probe-labelled cysteine peptide fold change” value was 0.0895.

In the case of “AHCYL1_O43865_392+395_NSCIVCNMGHSNTEIDVTSLR (UniProt O43865)”, the “probe-labelled cysteine peptide fold change” value is -0.176.

On to “ALS2_Q96Q42_916_LLCESSNR (UniProt Q96Q42)”, for which the “probe-labelled cysteine peptide fold change” value was 0.0281.
